Data source: PubChem BioAssay AID504764 (Drosophila RNAi Screening Center, 2011)

Aim: 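Genes whose knock-down alters Notch-dependent transcription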 (primary screen)
Cell system: Drosophila Kc167 cells
Reagents: long dsRNA against Drosophila genes
Timing: about 5 days (4 days dsRNA, then 24 h after transfection)
Treatment: transfection of constitutively active membrane-tethered Notch lacking the extracellular domain, read 24 h later
Measured: 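Firefly luciferase from an E(spl)m3 reporter with active Notch, plus control-promoter and uninduced reporter wells for normalisation; unnormalised counts, duplicate wells a and b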
Reading the numbers: induced reporter light, run 1, well a and induced reporter light, run 1, well b: higher = more light from the Notch target reporter with active Notch; control promoter light, run 1, well a and control promoter light, run 1, well b: higher = more light from the viral control promoter (cell number, transfection, viability); uninduced reporter light, run 1, well a: higher = more light from the Notch target reporter without active Notch
Active means: 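Hit if the duplicate-averaged log2 ratio of induced to control-promoter light gives a plate-wise z beyond ±2, or induced to uninduced beyond ±1.8; weak-control or discordant-duplicate wells dropped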
Calls: active = modifier hit (raised or lowered Notch signal); inactive = not a hit
The screen tested about 22,000 reagents; this is a random part of those that have a named target and a result. In the full data, 403 (1.9%) are marked active. 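Unnormalised raw counts per well; ratio z-scores behind the hit calls and whether each hit raises or lowers signal are not deposited.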 The record does not give: the amount of reagent.

{"gene knocked down": "Rsf1", "DRSC id": "DRSC03423", "induced reporter light, run 1, well a": 1.08e5, "induced reporter light, run 1, well b": 1.38e5, "control promoter light, run 1, well a": 74885, "control promoter light, run 1, well b": 1.03e5, "uninduced reporter light, run 1, well a": 19320, "outcome": "inactive"}
{"gene knocked down": "Rsf1", "DRSC id": "DRSC21953", "outcome": "inactive"}
{"gene knocked down": "Mettl3", "DRSC id": "DRSC15921", "induced reporter light, run 1, well a": 1.88e5, "induced reporter light, run 1, well b": 1.81e5, "control promoter light, run 1, well a": 2.09e5, "control promoter light, run 1, well b": 2.21e5, "uninduced reporter light, run 1, well a": 12860, "outcome": "inactive"}
{"gene knocked down": "NfI", "DRSC id": "DRSC17158", "induced reporter light, run 1, well a": 1.80e5, "induced reporter light, run 1, well b": 2.08e5, "control promoter light, run 1, well a": 2.87e5, "control promoter light, run 1, well b": 2.74e5, "uninduced reporter light, run 1, well a": 12715, "outcome": "inactive"}
{"gene knocked down": "CG42264", "DRSC id": "DRSC18074", "induced reporter light, run 1, well a": 1.64e5, "induced reporter light, run 1, well b": 1.40e5, "control promoter light, run 1, well a": 2.74e5, "control promoter light, run 1, well b": 2.55e5, "uninduced reporter light, run 1, well a": 11215, "outcome": "inactive"}
{"gene knocked down": "CG42264", "DRSC id": "DRSC18075", "induced reporter light, run 1, well a": 1.26e5, "induced reporter light, run 1, well b": 1.21e5, "control promoter light, run 1, well a": 3.26e5, "control promoter light, run 1, well b": 2.81e5, "uninduced reporter light, run 1, well a": 10992, "outcome": "inactive"}
{"gene knocked down": "MtnA", "DRSC id": "DRSC21588", "outcome": "inactive"}
{"gene knocked down": "Spx", "DRSC id": "DRSC18720", "induced reporter light, run 1, well a": 64660, "induced reporter light, run 1, well b": 60240, "control promoter light, run 1, well a": 1.03e5, "control promoter light, run 1, well b": 1.20e5, "uninduced reporter light, run 1, well a": 3515, "outcome": "inactive"}
{"gene knocked down": "mRF1", "DRSC id": "DRSC02880", "induced reporter light, run 1, well a": 2.01e5, "induced reporter light, run 1, well b": 2.47e5, "control promoter light, run 1, well a": 2.03e5, "control promoter light, run 1, well b": 1.86e5, "uninduced reporter light, run 1, well a": 16415, "outcome": "inactive"}
{"gene knocked down": "CG15036", "DRSC id": "DRSC17968", "induced reporter light, run 1, well a": 74240, "induced reporter light, run 1, well b": 99195, "control promoter light, run 1, well a": 1.63e5, "control promoter light, run 1, well b": 1.35e5, "uninduced reporter light, run 1, well a": 8195, "outcome": "inactive"}
{"gene knocked down": "ifc", "DRSC id": "DRSC03549", "induced reporter light, run 1, well a": 1.48e5, "induced reporter light, run 1, well b": 1.54e5, "control promoter light, run 1, well a": 1.57e5, "control promoter light, run 1, well b": 1.53e5, "uninduced reporter light, run 1, well a": 16285, "outcome": "inactive"}
{"gene knocked down": "Lim1", "DRSC id": "DRSC17752", "induced reporter light, run 1, well a": 2.08e5, "induced reporter light, run 1, well b": 1.90e5, "control promoter light, run 1, well a": 2.93e5, "control promoter light, run 1, well b": 2.77e5, "uninduced reporter light, run 1, well a": 16545, "outcome": "inactive"}
{"gene knocked down": "Lim1", "DRSC id": "DRSC18677", "induced reporter light, run 1, well a": 1.85e5, "induced reporter light, run 1, well b": 1.72e5, "control promoter light, run 1, well a": 3.23e5, "control promoter light, run 1, well b": 3.79e5, "uninduced reporter light, run 1, well a": 12405, "outcome": "inactive"}
{"gene knocked down": "Top1", "DRSC id": "DRSC20295", "induced reporter light, run 1, well a": 70590, "induced reporter light, run 1, well b": 71885, "control promoter light, run 1, well a": 92680, "control promoter light, run 1, well b": 1.04e5, "uninduced reporter light, run 1, well a": 11015, "outcome": "inactive"}
{"gene knocked down": "Gyg", "DRSC id": "DRSC03850", "induced reporter light, run 1, well a": 32280, "induced reporter light, run 1, well b": 48010, "control promoter light, run 1, well a": 36330, "control promoter light, run 1, well b": 48830, "uninduced reporter light, run 1, well a": 3780, "outcome": "inactive"}
{"gene knocked down": "Gyg", "DRSC id": "DRSC04556", "induced reporter light, run 1, well a": 49260, "induced reporter light, run 1, well b": 48200, "control promoter light, run 1, well a": 60815, "control promoter light, run 1, well b": 91510, "uninduced reporter light, run 1, well a": 2432, "outcome": "inactive"}
{"gene knocked down": "CG6295", "DRSC id": "DRSC16012", "induced reporter light, run 1, well a": 1.37e5, "induced reporter light, run 1, well b": 1.53e5, "control promoter light, run 1, well a": 1.71e5, "control promoter light, run 1, well b": 1.67e5, "uninduced reporter light, run 1, well a": 13455, "outcome": "inactive"}
{"gene knocked down": "msi", "DRSC id": "DRSC17003", "induced reporter light, run 1, well a": 69880, "induced reporter light, run 1, well b": 66315, "control promoter light, run 1, well a": 43925, "control promoter light, run 1, well b": 45795, "uninduced reporter light, run 1, well a": 5440, "outcome": "inactive"}
{"gene knocked down": "mRpL17", "DRSC id": "DRSC08350", "induced reporter light, run 1, well a": 1.36e5, "induced reporter light, run 1, well b": 1.42e5, "control promoter light, run 1, well a": 3.25e5, "control promoter light, run 1, well b": 2.33e5, "uninduced reporter light, run 1, well a": 7878, "outcome": "inactive"}
{"gene knocked down": "RtGEF", "DRSC id": "DRSC03604", "induced reporter light, run 1, well a": 56345, "induced reporter light, run 1, well b": 46525, "control promoter light, run 1, well a": 1.00e5, "control promoter light, run 1, well b": 91565, "uninduced reporter light, run 1, well a": 2935, "outcome": "inactive"}
{"gene knocked down": "CG32206", "DRSC id": "DRSC09602", "induced reporter light, run 1, well a": 2.13e5, "induced reporter light, run 1, well b": 2.63e5, "control promoter light, run 1, well a": 2.09e5, "control promoter light, run 1, well b": 2.42e5, "uninduced reporter light, run 1, well a": 16455, "outcome": "inactive"}
{"gene knocked down": "CG32206", "DRSC id": "DRSC10094", "induced reporter light, run 1, well a": 1.92e5, "induced reporter light, run 1, well b": 1.38e5, "control promoter light, run 1, well a": 91540, "control promoter light, run 1, well b": 1.14e5, "uninduced reporter light, run 1, well a": 8710, "outcome": "inactive"}
{"gene knocked down": "CG32206", "DRSC id": "DRSC10095", "induced reporter light, run 1, well a": 1.31e5, "induced reporter light, run 1, well b": 87090, "control promoter light, run 1, well a": 94395, "control promoter light, run 1, well b": 70175, "uninduced reporter light, run 1, well a": 6340, "outcome": "inactive"}
{"gene knocked down": "CG32206", "DRSC id": "DRSC10096", "induced reporter light, run 1, well a": 97015, "induced reporter light, run 1, well b": 67730, "control promoter light, run 1, well a": 80215, "control promoter light, run 1, well b": 65335, "uninduced reporter light, run 1, well a": 6645, "outcome": "inactive"}
{"gene knocked down": "CG32206", "DRSC id": "DRSC11080", "induced reporter light, run 1, well a": 1.07e5, "induced reporter light, run 1, well b": 92100, "control promoter light, run 1, well a": 81905, "control promoter light, run 1, well b": 72450, "uninduced reporter light, run 1, well a": 9490, "outcome": "inactive"}

Limited to “control promoter light, run 1, well a”, for 2 of the entries above:
Gyg [DRSC03850]: 36330
Gyg [DRSC04556]: 60815
